In article doi:10.1101/2023.08.01.551478, “A feedback control mechanism governs the synthesis of lipid-linked precursors of the bacterial cell wall” (bioRxiv, 2023):
These are yes or no findings as the source states them, for the method shown. Some entries that bind do so weakly or less than the wild type.

Chains of the proteins cited; added tags and fusions are not shown.
UniProt P0A9K9: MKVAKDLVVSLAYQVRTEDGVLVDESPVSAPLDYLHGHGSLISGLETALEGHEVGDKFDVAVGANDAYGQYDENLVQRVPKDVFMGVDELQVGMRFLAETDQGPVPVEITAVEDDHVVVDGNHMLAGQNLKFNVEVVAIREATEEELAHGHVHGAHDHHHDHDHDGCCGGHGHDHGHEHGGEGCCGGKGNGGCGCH

Target: T1, E. coli MraY(T23P) (E. coli) (UniProt P0A6W3)
T1 sequence: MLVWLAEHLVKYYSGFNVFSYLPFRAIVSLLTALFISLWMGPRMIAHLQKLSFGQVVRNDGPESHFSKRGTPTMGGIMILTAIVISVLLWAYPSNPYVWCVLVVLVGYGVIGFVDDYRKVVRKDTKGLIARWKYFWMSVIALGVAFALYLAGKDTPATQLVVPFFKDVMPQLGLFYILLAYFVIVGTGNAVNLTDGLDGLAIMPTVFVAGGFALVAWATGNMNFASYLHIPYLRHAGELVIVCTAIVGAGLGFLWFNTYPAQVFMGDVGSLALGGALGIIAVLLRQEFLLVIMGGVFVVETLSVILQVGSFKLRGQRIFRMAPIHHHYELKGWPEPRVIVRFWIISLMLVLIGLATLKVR
Assay: cryo-EM structure; YES complex of EcMraY(T23P), protein E and SlyD, obtained with the methodologies of ref. 31; focused refinement of MraY alone; processed with cryosparc v3.2.0; both purified

binding: binds
Substance: E. coli chaperone SlyD (from UniProt P0A9K9 1-196)
